Values of other authors as cited in US20230355644A1, “ACTIVE INGREDIENTS AND DRUGS FOR THE THERAPY OF VIRAL DISEASES, ESPECIALLY CORONA INFECTIONS, ESPECIALLY COVID-19” (Creative Therapeutics GmbH, priority 2020, published 2023).
Read-outs that look alike come from different tables or passages of the source. At least one compound was matched to its structure with a doubt left.

System: COVID-19
Conditions: cited from earlier work

Structure (SMILES)	mortality rate (patients on oxygen, reduced from 26%) [%]	mortality rate (patients on ventilators, reduced from 41%) [%]	disease duration (hospitalized patients, preliminary published randomized study)
C[C@@H]1C[C@H]2[C@@H]3CCC4=CC(=O)C=C[C@]4(C)[C@@]3(F)[C@@H](O)C[C@]2(C)[C@@]1(O)C(=O)CO [dexamethasone]	23	29	–
CCC(CC)COC(=O)[C@H](C)N[P@](=O)(OC[C@H]1O[C@@](C#N)(c2ccc3c(N)ncnn23)[C@H](O)[C@@H]1O)Oc1ccccc1 [Remdesivir]	–	–	reduction of disease duration
